In the assay the target is T1, IL-13 receptor α-chain 2 (IL13Rα2) (mouse (endogenous in BMMs)) (UniProt O88786).
T1 sequence: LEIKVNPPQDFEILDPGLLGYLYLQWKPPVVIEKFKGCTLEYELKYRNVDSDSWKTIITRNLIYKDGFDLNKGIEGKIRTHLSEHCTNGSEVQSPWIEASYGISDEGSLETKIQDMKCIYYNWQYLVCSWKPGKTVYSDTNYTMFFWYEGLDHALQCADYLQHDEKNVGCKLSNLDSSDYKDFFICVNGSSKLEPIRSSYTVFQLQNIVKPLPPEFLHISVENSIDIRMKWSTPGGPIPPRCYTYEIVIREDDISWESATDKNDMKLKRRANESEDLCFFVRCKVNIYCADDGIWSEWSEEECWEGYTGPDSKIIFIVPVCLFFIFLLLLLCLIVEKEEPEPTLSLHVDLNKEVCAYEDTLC
Nature of the assay: co-IP; lysate of mouse BMMs incubated 24 h with or without 100 ng/mL RANKL; anti-Chi3l1 (AF2649) or anti-IL13Rα2 (sc-134,363) on Protein A + G magnetic beads, overnight at 4 °C, washed with 1x TBST; Western blot; species-matched IgG controls. Background: A western blot detects proteins with antibodies after separation by electrophoresis.

Sequences of proteins named here, by UniProt entry; tags and fusion partners are left off. Residues count along the entry.
UniProt Q61362, residues 30-389: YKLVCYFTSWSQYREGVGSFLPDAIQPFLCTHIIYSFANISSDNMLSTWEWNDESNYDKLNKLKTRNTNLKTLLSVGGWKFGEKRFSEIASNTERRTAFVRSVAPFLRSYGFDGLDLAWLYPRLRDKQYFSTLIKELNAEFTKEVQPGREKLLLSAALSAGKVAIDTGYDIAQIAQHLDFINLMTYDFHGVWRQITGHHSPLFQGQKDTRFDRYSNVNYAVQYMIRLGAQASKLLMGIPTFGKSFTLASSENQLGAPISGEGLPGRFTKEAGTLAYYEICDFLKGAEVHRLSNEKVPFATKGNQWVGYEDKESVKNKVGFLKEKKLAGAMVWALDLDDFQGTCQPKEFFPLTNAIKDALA

These are yes or no findings as the source states them, for the method shown. In cells and extracts the contact can be indirect. Some binding calls cover weakened binding; strength is not graded here.

We go through one substance from paper PMC10826115.

For “Chitinase 3-like 1 (Chi3l1) (from UniProt Q61362 30-389) (ligand)”, the binding result is reported as “binds”.
